Measurements as given in the supplement of paper PMC10849652.
The list shows a part of the results.

By UniProt entry, the sequences of proteins in these tests, tags left out. Where a name states a change or a piece, a line headed by the entry shows the natural chain unless it says otherwise.
UniProt Q09472, whole entry, looked up: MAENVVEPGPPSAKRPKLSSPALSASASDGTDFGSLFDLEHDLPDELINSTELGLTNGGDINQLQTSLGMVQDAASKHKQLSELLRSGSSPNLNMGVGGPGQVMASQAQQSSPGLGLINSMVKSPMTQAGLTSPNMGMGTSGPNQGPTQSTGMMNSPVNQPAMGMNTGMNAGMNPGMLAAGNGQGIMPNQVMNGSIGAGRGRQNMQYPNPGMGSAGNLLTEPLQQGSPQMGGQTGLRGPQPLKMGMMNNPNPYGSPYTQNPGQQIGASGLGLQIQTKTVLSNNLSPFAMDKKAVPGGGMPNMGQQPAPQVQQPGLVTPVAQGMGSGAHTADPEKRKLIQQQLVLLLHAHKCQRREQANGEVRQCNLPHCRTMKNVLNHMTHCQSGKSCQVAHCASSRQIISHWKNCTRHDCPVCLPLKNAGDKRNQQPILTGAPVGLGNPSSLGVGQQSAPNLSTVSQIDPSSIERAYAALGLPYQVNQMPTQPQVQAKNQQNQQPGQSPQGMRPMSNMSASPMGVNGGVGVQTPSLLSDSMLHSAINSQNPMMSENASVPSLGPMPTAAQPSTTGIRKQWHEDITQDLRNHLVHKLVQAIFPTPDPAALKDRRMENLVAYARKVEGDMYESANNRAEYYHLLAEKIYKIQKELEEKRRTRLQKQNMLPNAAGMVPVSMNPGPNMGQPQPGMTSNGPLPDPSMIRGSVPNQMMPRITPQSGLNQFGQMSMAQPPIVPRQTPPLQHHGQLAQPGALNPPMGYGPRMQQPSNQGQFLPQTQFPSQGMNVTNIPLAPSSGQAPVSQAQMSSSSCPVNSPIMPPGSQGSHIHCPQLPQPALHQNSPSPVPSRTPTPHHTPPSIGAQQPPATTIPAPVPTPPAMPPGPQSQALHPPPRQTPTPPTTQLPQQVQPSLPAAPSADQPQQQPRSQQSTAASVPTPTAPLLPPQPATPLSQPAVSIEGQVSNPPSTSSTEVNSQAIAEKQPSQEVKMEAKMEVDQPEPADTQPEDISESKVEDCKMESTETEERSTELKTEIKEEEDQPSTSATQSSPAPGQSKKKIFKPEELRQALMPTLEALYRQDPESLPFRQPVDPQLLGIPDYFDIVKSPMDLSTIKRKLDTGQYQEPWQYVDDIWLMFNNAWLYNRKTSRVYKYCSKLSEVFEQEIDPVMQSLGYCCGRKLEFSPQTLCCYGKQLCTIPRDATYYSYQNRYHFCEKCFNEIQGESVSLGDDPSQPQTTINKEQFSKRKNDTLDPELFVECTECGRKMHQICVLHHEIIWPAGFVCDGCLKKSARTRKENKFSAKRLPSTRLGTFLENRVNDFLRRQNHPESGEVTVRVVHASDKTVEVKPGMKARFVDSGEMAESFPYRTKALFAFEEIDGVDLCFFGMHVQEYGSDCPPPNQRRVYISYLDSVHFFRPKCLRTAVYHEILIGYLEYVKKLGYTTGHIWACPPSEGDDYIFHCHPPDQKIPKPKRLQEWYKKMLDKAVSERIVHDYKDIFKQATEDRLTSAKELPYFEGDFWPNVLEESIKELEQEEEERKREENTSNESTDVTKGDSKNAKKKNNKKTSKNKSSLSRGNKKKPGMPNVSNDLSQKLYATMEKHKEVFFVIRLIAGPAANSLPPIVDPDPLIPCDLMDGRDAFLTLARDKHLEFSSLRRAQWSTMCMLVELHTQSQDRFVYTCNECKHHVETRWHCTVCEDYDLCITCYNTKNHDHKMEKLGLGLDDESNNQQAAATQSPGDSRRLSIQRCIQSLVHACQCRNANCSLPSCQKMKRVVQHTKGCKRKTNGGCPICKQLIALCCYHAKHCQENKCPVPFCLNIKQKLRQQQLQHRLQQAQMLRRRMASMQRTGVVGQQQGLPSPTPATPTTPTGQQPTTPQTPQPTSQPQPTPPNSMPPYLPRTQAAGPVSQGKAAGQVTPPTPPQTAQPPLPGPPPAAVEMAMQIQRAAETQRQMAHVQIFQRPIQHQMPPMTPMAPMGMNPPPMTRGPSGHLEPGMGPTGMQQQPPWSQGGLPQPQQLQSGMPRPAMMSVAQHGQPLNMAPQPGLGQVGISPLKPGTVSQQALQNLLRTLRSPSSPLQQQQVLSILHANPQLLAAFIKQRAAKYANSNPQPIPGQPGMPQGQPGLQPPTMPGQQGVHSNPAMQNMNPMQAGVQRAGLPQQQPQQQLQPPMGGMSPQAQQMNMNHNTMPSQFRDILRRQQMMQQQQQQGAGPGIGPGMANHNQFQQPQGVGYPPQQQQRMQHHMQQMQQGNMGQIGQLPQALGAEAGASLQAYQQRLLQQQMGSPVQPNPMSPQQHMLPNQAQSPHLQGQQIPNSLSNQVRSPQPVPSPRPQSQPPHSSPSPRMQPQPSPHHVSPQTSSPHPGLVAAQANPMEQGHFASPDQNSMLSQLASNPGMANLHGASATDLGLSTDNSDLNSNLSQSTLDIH
UniProt O75616: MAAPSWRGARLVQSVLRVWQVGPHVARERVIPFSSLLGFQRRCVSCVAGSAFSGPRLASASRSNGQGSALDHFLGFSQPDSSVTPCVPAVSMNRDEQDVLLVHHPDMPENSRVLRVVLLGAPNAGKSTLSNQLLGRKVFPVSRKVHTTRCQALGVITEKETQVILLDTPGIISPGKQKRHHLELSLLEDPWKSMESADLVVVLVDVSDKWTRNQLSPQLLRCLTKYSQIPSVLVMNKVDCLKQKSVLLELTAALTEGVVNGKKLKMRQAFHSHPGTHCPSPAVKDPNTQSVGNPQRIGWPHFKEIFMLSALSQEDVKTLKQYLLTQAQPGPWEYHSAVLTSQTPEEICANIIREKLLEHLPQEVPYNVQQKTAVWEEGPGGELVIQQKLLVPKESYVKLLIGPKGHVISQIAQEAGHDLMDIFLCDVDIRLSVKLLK
UniProt O00303, whole entry, looked up: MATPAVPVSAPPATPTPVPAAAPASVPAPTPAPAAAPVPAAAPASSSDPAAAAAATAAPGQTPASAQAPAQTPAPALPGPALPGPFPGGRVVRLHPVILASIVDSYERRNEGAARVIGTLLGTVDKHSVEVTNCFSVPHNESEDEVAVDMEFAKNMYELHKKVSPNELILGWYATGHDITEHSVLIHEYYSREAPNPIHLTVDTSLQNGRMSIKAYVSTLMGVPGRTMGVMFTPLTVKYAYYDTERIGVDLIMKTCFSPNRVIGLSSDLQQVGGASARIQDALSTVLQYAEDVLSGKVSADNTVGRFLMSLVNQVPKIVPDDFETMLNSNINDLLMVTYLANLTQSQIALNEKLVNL
UniProt Q92556, whole entry, looked up: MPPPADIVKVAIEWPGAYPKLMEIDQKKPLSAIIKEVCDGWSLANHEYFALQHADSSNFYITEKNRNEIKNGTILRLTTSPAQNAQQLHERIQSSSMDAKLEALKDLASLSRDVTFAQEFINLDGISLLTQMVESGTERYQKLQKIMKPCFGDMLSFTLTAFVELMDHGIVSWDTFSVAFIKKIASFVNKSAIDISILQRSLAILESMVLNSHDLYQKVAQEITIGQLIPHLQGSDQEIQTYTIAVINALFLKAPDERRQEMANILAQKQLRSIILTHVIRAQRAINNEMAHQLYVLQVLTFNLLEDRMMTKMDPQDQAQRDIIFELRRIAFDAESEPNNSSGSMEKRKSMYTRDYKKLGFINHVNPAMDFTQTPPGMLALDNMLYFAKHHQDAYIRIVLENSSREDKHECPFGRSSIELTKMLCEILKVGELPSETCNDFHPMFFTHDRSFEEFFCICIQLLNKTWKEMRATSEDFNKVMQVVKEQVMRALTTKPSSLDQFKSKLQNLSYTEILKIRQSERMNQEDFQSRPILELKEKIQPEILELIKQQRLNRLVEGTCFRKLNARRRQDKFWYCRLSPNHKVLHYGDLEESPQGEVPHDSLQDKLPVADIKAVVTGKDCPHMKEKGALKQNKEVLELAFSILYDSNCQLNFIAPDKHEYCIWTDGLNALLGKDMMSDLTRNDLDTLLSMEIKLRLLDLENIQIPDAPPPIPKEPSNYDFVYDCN
UniProt Q9NPA8: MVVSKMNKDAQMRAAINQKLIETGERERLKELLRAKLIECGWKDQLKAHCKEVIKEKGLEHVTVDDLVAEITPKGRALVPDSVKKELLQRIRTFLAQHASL
UniProt Q9NPA0: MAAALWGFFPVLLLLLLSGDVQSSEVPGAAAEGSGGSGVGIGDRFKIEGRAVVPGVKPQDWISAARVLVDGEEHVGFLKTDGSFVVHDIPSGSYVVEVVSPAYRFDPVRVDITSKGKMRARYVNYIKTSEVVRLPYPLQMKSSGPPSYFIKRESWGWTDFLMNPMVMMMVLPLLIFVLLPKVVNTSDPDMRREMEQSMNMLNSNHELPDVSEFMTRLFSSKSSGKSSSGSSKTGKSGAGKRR
UniProt P84090, whole entry, looked up: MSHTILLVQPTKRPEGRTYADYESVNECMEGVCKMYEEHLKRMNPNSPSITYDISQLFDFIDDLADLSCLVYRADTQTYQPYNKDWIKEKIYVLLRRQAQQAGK
UniProt Q9UBC2: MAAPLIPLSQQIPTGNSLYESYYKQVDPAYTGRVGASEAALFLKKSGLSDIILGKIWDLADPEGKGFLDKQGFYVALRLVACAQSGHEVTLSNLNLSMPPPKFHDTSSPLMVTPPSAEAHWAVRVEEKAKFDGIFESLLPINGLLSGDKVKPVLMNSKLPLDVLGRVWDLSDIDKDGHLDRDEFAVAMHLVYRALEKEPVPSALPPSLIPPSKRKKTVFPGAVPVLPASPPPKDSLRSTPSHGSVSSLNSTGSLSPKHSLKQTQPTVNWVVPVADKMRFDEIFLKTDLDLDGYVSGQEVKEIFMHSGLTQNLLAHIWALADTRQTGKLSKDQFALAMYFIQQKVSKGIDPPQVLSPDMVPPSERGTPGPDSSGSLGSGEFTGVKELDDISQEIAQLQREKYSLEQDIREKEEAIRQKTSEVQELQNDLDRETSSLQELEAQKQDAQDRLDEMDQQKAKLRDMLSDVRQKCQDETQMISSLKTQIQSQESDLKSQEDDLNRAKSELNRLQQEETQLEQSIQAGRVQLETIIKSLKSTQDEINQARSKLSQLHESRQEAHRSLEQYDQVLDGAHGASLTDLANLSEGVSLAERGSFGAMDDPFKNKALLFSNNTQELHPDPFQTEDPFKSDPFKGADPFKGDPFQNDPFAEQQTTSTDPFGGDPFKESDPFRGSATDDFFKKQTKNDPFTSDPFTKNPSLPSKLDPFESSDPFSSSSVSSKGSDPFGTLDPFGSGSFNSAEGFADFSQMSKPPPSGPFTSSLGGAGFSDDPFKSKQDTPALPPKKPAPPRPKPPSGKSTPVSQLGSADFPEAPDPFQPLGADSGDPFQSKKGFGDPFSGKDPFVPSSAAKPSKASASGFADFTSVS
UniProt O43768: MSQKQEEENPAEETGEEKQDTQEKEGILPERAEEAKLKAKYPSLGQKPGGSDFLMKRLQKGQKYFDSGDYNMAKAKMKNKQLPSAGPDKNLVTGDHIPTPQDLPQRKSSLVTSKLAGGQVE
UniProt P54852: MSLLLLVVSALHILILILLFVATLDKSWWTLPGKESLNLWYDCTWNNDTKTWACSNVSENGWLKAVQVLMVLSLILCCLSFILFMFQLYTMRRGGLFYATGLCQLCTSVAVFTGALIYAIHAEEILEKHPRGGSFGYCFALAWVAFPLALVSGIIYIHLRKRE
UniProt Q5J8M3, whole entry, looked up: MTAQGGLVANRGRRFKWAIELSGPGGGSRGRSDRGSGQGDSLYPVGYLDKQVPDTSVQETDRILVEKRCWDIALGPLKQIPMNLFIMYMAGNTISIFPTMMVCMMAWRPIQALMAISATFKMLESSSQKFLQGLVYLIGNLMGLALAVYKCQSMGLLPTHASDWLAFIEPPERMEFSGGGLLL
UniProt Q6IA86: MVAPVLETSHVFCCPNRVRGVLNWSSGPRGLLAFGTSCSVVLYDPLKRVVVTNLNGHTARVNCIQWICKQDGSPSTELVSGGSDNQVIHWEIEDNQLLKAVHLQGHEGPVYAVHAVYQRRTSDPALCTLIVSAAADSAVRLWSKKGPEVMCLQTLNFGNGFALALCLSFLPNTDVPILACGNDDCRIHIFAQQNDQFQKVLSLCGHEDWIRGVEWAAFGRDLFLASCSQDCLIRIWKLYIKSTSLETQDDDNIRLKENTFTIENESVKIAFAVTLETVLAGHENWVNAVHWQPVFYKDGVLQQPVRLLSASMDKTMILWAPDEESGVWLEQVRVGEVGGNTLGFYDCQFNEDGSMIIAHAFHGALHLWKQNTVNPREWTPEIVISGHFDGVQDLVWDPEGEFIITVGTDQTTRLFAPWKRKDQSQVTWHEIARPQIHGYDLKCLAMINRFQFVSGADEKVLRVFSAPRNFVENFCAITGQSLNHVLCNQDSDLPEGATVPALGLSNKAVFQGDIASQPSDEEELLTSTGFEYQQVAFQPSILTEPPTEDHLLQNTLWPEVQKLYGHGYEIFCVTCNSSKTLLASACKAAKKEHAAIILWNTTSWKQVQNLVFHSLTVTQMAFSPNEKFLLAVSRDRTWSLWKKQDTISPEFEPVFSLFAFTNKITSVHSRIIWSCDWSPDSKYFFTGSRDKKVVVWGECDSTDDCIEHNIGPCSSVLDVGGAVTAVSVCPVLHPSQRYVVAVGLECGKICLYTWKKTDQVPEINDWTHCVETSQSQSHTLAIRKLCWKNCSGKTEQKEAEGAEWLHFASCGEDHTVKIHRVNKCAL

Compound: CN1CCc2c(c3ccccc3n2Cc2ccc(C(=O)NO)cc2)C1 [Tubastatin A]
Test: log2 fold change, soluble protein after heating vs DMSO (PISA); higher = thermal stabilisation; K562 lysate, 10 uM; active = over 0.2 and 3.5 SD of the protein, either way, in both replicates (recomputed)
Procedure, shortened: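 Thermal stability, expressed as log-two fold change relative to solvent controls, is given from duplicates. Crude K562 extract in PBS pH 7.4 with 1 mM MgCl2, at 1 mg/mL protein, was treated with 10 μM compound for 30 min and heated in aliquots for 3 min across 48°C-58°C. After pooling, adjustment to 0.5% NP-40 at 4°C and centrifugation at 21,000xg for 90 min, supernatant protein was measured by TMTpro 16plex LC-MS/MS with channel sums equalised.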

log2 fold change, inactive:
EIF3G (UniProt K7ER90) 0.103
EP300 (UniProt Q09472) 0.035
ERGIC2 (UniProt Q96RQ1) 0.015
ERAL1 (UniProt O75616) -0.151
EIF3F (UniProt O00303) -0.031
EMC3 (UniProt Q9P0I2) 0.097
ELMO1 (UniProt Q92556) -0.056
ERC1 (UniProt X6RLX0) 0.044
EIF3B isoform 2 (UniProt P55884) -0.013
ERI1 (UniProt Q8IV48) 0
ENY2 (UniProt Q9NPA8) -0.024
EMC7 (UniProt Q9NPA0) 0.039
EMC6 (UniProt Q9BV81) 0.225
EIF2D (UniProt P41214) -0.083
EIF2S3 (UniProt P41091) 0.032
ELF2 (UniProt Q15723) 0.016
ERH (UniProt P84090) 0.028
EPHX2 (UniProt P34913) 0.183
EPS15L1 isoform 2 (UniProt Q9UBC2) 0.026
ERCC4 (UniProt Q92889) -0.021
ERCC3 (UniProt P19447) -0.048
EPPK1 (UniProt P58107) -0.114
EIF6 (UniProt P56537) 0.035
ENSA isoform 3 (UniProt O43768) -0.038
EMP3 (UniProt P54852) -0.021
EIF4E isoform 2 (UniProt P06730) -0.051
ENTPD5 (UniProt O75356) 0.035
EPRS (UniProt P07814) -0.11
EIF2B4 isoform 2 (UniProt Q9UI10) -0.025
EMC4 (UniProt Q5J8M3) 0.036
ELP2 isoform 6 (UniProt Q6IA86) -0.019
ENGASE (UniProt Q8NFI3) -0.02
ENPP3 (UniProt O14638) 0.016
ENDOG (UniProt Q14249) 0.035
EPN1 (UniProt Q9Y6I3) 0.02
EMD (UniProt P50402) -0.109

Nothing new here: entries from further up.
log2 fold change, inactive:
EMC7 (UniProt Q9NPA0) 0.039
EMC6 (UniProt Q9BV81) 0.225
